In test [1] the target is T1, full-length NLRP7 L398R for co-immunoprecipitation (human) (UniProt Q8WX94).
T1 sequence: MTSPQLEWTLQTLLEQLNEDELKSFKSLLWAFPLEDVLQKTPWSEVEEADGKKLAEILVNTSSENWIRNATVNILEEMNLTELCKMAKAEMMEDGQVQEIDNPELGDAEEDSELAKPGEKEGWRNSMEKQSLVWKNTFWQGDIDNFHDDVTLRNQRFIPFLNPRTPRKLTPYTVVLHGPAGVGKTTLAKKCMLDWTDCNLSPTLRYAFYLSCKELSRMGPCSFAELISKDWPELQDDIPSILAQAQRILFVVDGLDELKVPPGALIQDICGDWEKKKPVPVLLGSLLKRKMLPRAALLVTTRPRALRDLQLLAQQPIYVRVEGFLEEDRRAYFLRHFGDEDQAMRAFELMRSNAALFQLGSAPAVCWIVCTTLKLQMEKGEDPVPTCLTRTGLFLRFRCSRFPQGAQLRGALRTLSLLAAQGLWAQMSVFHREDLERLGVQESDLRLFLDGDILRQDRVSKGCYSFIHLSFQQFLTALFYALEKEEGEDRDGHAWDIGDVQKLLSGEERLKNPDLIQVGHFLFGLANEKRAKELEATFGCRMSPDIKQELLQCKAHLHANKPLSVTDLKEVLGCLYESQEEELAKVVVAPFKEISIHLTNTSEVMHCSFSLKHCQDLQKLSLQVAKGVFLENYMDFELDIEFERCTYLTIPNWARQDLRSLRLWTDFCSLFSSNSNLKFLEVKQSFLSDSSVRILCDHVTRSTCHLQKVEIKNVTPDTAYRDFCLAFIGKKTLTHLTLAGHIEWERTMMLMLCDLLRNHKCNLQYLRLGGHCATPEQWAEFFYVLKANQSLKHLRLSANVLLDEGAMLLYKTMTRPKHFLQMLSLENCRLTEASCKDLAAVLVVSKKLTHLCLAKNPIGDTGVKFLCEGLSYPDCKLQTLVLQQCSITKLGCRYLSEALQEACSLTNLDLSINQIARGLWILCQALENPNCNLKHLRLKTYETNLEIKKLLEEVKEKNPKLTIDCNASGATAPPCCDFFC
Description: co-IP; data not shown; ZBTB16 with mutated full-length NLRP7 constructs.

For test [2], the target named is T2, full-length ZBTB16 fused to the GAL4 DNA-binding domain (human) (UniProt Q05516).
T2 sequence: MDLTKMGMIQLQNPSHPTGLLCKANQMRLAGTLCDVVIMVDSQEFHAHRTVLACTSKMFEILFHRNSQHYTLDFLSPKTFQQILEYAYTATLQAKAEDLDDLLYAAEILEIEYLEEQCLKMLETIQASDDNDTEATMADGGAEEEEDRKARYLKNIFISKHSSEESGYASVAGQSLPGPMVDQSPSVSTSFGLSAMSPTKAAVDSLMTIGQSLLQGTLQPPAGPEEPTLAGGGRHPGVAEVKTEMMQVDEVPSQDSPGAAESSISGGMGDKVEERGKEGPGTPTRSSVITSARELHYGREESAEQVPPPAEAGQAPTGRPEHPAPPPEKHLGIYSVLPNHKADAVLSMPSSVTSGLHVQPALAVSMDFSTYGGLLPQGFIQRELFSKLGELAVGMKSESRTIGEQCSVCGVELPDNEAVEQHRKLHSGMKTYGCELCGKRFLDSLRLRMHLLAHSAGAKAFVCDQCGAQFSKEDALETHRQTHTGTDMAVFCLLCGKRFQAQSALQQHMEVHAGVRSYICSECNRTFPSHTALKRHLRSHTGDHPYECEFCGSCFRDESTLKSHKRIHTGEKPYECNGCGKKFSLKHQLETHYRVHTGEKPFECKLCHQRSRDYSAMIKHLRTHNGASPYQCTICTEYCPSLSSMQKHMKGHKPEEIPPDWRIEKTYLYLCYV
Description: two-hybrid; … GAL4 system (Clontech), yeast strain AH109; full-length ZBTB16 on the GAL4 DNA-binding domain (pGBKT7) as bait, NLRP7 constructs on the GAL4 activation domain (pGADT7); growth on SDhigh.

The target in test [3] is T3, full-length NLRP7 bait of the LexA-based yeast two-hybrid screen (human) (UniProt Q8WX94).
T3 sequence: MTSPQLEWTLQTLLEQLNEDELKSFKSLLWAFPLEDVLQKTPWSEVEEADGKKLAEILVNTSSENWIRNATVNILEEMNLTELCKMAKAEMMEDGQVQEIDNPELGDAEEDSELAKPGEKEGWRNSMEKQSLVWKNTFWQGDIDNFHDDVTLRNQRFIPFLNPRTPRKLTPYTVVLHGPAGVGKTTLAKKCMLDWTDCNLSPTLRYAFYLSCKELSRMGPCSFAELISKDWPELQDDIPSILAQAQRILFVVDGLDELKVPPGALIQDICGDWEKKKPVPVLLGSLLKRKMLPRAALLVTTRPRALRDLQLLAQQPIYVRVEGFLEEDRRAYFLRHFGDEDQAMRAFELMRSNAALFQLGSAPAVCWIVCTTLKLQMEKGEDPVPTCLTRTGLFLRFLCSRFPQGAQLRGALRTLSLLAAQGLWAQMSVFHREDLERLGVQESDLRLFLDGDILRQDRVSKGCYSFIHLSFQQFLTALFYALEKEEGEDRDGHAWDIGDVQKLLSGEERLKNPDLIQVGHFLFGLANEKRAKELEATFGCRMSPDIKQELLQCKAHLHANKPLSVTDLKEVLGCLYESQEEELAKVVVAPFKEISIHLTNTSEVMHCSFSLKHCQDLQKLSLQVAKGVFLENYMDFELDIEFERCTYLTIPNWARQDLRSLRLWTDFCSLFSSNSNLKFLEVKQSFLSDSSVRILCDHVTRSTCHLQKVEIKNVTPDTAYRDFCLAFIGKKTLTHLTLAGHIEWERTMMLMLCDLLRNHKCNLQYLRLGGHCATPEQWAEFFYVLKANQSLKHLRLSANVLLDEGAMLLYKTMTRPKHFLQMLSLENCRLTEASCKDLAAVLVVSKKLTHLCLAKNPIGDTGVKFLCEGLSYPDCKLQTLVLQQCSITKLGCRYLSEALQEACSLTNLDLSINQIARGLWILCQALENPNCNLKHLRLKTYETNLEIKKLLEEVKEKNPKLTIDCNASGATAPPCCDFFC
Briefly: two-hybrid; LexA-based DUALhybrid screen (Dualsystems); full-length NLRP7 as bait against a human ovarian cDNA library (Clontech Cat#638822); ß-galactosidase activity and growth on SDhigh (SD-ade).

No constants are given. Whether binding was seen depends on the method and setting. For some of these results: In cells and extracts the contact can be indirect. Some binding calls cover weakened binding; strength is not graded here. For some of these results: Sequences can lack the tags named with a protein.

B1: full-length ZBTB16, Myc-tagged (protein, UniProt Q05516 1-673)
chain: MDLTKMGMIQLQNPSHPTGLLCKANQMRLAGTLCDVVIMVDSQEFHAHRTVLACTSKMFEILFHRNSQHYTLDFLSPKTFQQILEYAYTATLQAKAEDLDDLLYAAEILEIEYLEEQCLKMLETIQASDDNDTEATMADGGAEEEEDRKARYLKNIFISKHSSEESGYASVAGQSLPGPMVDQSPSVSTSFGLSAMSPTKAAVDSLMTIGQSLLQGTLQPPAGPEEPTLAGGGRHPGVAEVKTEMMQVDEVPSQDSPGAAESSISGGMGDKVEERGKEGPGTPTRSSVITSARELHYGREESAEQVPPPAEAGQAPTGRPEHPAPPPEKHLGIYSVLPNHKADAVLSMPSSVTSGLHVQPALAVSMDFSTYGGLLPQGFIQRELFSKLGELAVGMKSESRTIGEQCSVCGVELPDNEAVEQHRKLHSGMKTYGCELCGKRFLDSLRLRMHLLAHSAGAKAFVCDQCGAQFSKEDALETHRQTHTGTDMAVFCLLCGKRFQAQSALQQHMEVHAGVRSYICSECNRTFPSHTALKRHLRSHTGDHPYECEFCGSCFRDESTLKSHKRIHTGEKPYECNGCGKKFSLKHQLETHYRVHTGEKPFECKLCHQRSRDYSAMIKHLRTHNGASPYQCTICTEYCPSLSSMQKHMKGHKPEEIPPDWRIEKTYLYLCYV
Regarding B1, in test [1], the binding result is “binds”.

B2: full-length ZBTB16 fused to the GAL4 DNA-binding domain (protein, UniProt Q05516 1-673)
chain: MDLTKMGMIQLQNPSHPTGLLCKANQMRLAGTLCDVVIMVDSQEFHAHRTVLACTSKMFEILFHRNSQHYTLDFLSPKTFQQILEYAYTATLQAKAEDLDDLLYAAEILEIEYLEEQCLKMLETIQASDDNDTEATMADGGAEEEEDRKARYLKNIFISKHSSEESGYASVAGQSLPGPMVDQSPSVSTSFGLSAMSPTKAAVDSLMTIGQSLLQGTLQPPAGPEEPTLAGGGRHPGVAEVKTEMMQVDEVPSQDSPGAAESSISGGMGDKVEERGKEGPGTPTRSSVITSARELHYGREESAEQVPPPAEAGQAPTGRPEHPAPPPEKHLGIYSVLPNHKADAVLSMPSSVTSGLHVQPALAVSMDFSTYGGLLPQGFIQRELFSKLGELAVGMKSESRTIGEQCSVCGVELPDNEAVEQHRKLHSGMKTYGCELCGKRFLDSLRLRMHLLAHSAGAKAFVCDQCGAQFSKEDALETHRQTHTGTDMAVFCLLCGKRFQAQSALQQHMEVHAGVRSYICSECNRTFPSHTALKRHLRSHTGDHPYECEFCGSCFRDESTLKSHKRIHTGEKPYECNGCGKKFSLKHQLETHYRVHTGEKPFECKLCHQRSRDYSAMIKHLRTHNGASPYQCTICTEYCPSLSSMQKHMKGHKPEEIPPDWRIEKTYLYLCYV
As to B2, the binding entry in test [2] is reported as “binds”.

B3: ZBTB16 Prey#1 (268–673) from the human ovarian cDNA library (domain or fragment, UniProt Q05516 268-673)
chain: MGDKVEERGKEGPGTPTRSSVITSARELHYGREESAEQVPPPAEAGQAPTGRPEHPAPPPEKHLGIYSVLPNHKADAVLSMPSSVTSGLHVQPALAVSMDFSTYGGLLPQGFIQRELFSKLGELAVGMKSESRTIGEQCSVCGVELPDNEAVEQHRKLHSGMKTYGCELCGKRFLDSLRLRMHLLAHSAGAKAFVCDQCGAQFSKEDALETHRQTHTGTDMAVFCLLCGKRFQAQSALQQHMEVHAGVRSYICSECNRTFPSHTALKRHLRSHTGDHPYECEFCGSCFRDESTLKSHKRIHTGEKPYECNGCGKKFSLKHQLETHYRVHTGEKPFECKLCHQRSRDYSAMIKHLRTHNGASPYQCTICTEYCPSLSSMQKHMKGHKPEEIPPDWRIEKTYLYLCYV
Take B3: the binding result in test [3] is given as “binds”.

B4: full-length NLRP7 L398R fused to the GAL4 activation domain (protein, UniProt Q8WX94 1-980)
chain: MTSPQLEWTLQTLLEQLNEDELKSFKSLLWAFPLEDVLQKTPWSEVEEADGKKLAEILVNTSSENWIRNATVNILEEMNLTELCKMAKAEMMEDGQVQEIDNPELGDAEEDSELAKPGEKEGWRNSMEKQSLVWKNTFWQGDIDNFHDDVTLRNQRFIPFLNPRTPRKLTPYTVVLHGPAGVGKTTLAKKCMLDWTDCNLSPTLRYAFYLSCKELSRMGPCSFAELISKDWPELQDDIPSILAQAQRILFVVDGLDELKVPPGALIQDICGDWEKKKPVPVLLGSLLKRKMLPRAALLVTTRPRALRDLQLLAQQPIYVRVEGFLEEDRRAYFLRHFGDEDQAMRAFELMRSNAALFQLGSAPAVCWIVCTTLKLQMEKGEDPVPTCLTRTGLFLRFRCSRFPQGAQLRGALRTLSLLAAQGLWAQMSVFHREDLERLGVQESDLRLFLDGDILRQDRVSKGCYSFIHLSFQQFLTALFYALEKEEGEDRDGHAWDIGDVQKLLSGEERLKNPDLIQVGHFLFGLANEKRAKELEATFGCRMSPDIKQELLQCKAHLHANKPLSVTDLKEVLGCLYESQEEELAKVVVAPFKEISIHLTNTSEVMHCSFSLKHCQDLQKLSLQVAKGVFLENYMDFELDIEFERCTYLTIPNWARQDLRSLRLWTDFCSLFSSNSNLKFLEVKQSFLSDSSVRILCDHVTRSTCHLQKVEIKNVTPDTAYRDFCLAFIGKKTLTHLTLAGHIEWERTMMLMLCDLLRNHKCNLQYLRLGGHCATPEQWAEFFYVLKANQSLKHLRLSANVLLDEGAMLLYKTMTRPKHFLQMLSLENCRLTEASCKDLAAVLVVSKKLTHLCLAKNPIGDTGVKFLCEGLSYPDCKLQTLVLQQCSITKLGCRYLSEALQEACSLTNLDLSINQIARGLWILCQALENPNCNLKHLRLKTYETNLEIKKLLEEVKEKNPKLTIDCNASGATAPPCCDFFC
In the case of B4, the binding result in test [2] is “binds”.
